The record followed here is patent publication US20100297119A1.

This assay concerns the target sTNALP-FcD10 (human). In words: Protein A affinity chromatography of culture supernatant.

These are yes or no findings as the source states them, for the method shown. Some results given as binding are weak or reduced against the parent protein; the word gives no strength.

Regarding “Protein A (Protein A-Sepharose) (from UniProt P38507 37-327)”, the binding entry was “binds”.
